In article PMC2953525, “Subtle Alterations in PCNA-Partner Interactions Severely Impair DNA Replication and Repair” (PLoS Biology, 2010) one finds binding data, which are given here for 2 molecules.

No constants are given. Whether binding was seen depends on the method and setting. Some binding calls cover weakened binding; strength is not graded here. For some of these results: Sequences can lack the tags named with a protein.

The target of assay [1] is WT PCNA of the POL30 strain (yeast) (UniProt P15873). The assay can be described thus: ELISA; PCNA captured from crude yeast extract (3 mg/ml) on plates coated with anti-PCNA antibody; bound GFP-tagged partner detected by anti-GFP, normalised to the anti-His signal of PCNA. In general terms: An ELISA detects its analyte on a solid surface through an enzyme-linked reagent.

The next assay addresses T1, pol30-Pol32E5 (yeast, UniProt P15873 1-258, IDCL DIDADFLKIEEL to DADNDFLKISEL).
T1 construct: PCNA (POL30), yeast; source: yeast two-hybrid fusion (pAD-GAL4, strain YRG2)
T1 sequence: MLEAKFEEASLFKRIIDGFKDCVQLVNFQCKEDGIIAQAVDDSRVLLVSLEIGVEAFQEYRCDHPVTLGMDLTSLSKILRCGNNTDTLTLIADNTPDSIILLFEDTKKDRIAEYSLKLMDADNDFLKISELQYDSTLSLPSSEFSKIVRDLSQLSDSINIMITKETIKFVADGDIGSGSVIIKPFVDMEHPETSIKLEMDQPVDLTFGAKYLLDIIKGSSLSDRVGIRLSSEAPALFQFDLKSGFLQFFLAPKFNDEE
Briefly: two-hybrid; pAD-GAL4-PCNA WT or mutant (called bait) and pBD-GAL4-partner (called prey) in strain YRG2; 10-fold serial dilutions spotted on SC-Leu-Trp-His plates, 30°C, 3 d; growth similar to WT PCNA is denoted 1.

The target of a further assay is T2, pol30-Ung1E3 (yeast, UniProt P15873 1-258, IDCL DIDADFLKIEEL to DFDYDELKIEEL).
T2 construct: PCNA (POL30), yeast; source: yeast two-hybrid fusion (pAD-GAL4, strain YRG2)
T2 sequence: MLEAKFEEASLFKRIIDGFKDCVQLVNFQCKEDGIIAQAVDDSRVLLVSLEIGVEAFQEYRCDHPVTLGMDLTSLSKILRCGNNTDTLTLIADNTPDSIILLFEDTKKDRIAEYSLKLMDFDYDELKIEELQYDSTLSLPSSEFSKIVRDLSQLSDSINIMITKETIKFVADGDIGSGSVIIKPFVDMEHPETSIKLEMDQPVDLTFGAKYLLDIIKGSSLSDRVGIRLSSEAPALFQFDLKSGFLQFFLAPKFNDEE
Described as above.

For assay [2], the target named is proliferating cell nuclear antigen (PCNA) (yeast) (UniProt P15873). The description is as above.

B1: GFP-tagged Rad27 (natural protein, yeast, UniProt P26793 1-382, looked up)
chain: MGIKGLNAIISEHVPSAIRKSDIKSFFGRKVAIDASMSLYQFLIAVRQQDGGQLTNEAGETTSHLMGMFYRTLRMIDNGIKPCYVFDGKPPDLKSHELTKRSSRRVETEKKLAEATTELEKMKQERRLVKVSKEHNEEAQKLLGLMGIPYIIAPTEAEAQCAELAKKGKVYAAASEDMDTLCYRTPFLLRHLTFSEAKKEPIHEIDTELVLRGLDLTIEQFVDLCIMLGCDYCESIRGVGPVTALKLIKTHGSIEKIVEFIESGESNNTKWKIPEDWPYKQARMLFLDPEVIDGNEINLKWSPPKEKELIEYLCDDKKFSEERVKSGISRLKKGLKSGIQGRLDGFFQVVPKTKEQLAAAAKRAQENKKLNKNKNKVTKGRR
notes: Rad27, yeast, tagged at its natural locus; source: yeast, GFP-tagged at the natural locus, in crude cell extract; not shown: GFP, C-terminal, kept
Turning to B1, in assay [1], the binding result is “binds”.

B2: Rad27 (natural protein, yeast, UniProt P26793 1-382, looked up)
chain: MGIKGLNAIISEHVPSAIRKSDIKSFFGRKVAIDASMSLYQFLIAVRQQDGGQLTNEAGETTSHLMGMFYRTLRMIDNGIKPCYVFDGKPPDLKSHELTKRSSRRVETEKKLAEATTELEKMKQERRLVKVSKEHNEEAQKLLGLMGIPYIIAPTEAEAQCAELAKKGKVYAAASEDMDTLCYRTPFLLRHLTFSEAKKEPIHEIDTELVLRGLDLTIEQFVDLCIMLGCDYCESIRGVGPVTALKLIKTHGSIEKIVEFIESGESNNTKWKIPEDWPYKQARMLFLDPEVIDGNEINLKWSPPKEKELIEYLCDDKKFSEERVKSGISRLKKGLKSGIQGRLDGFFQVVPKTKEQLAAAAKRAQENKKLNKNKNKVTKGRR
notes: Rad27 (endonuclease), yeast; also called pBD-Rad27; source: yeast two-hybrid fusion (pBD-GAL4, strain YRG2)
As for B2, the binding entry (with pol30-Pol32E5; with pol30-Ung1E3; in assay [2]) was “binds” throughout.
